According to the supplement of paper PMC10849652:
The list shows a part of the results.

Amino acid sequences for entries named in this document (tags omitted). A change or cut given only in a name is not applied to a line headed by its entry.
UniProt Q96HY6: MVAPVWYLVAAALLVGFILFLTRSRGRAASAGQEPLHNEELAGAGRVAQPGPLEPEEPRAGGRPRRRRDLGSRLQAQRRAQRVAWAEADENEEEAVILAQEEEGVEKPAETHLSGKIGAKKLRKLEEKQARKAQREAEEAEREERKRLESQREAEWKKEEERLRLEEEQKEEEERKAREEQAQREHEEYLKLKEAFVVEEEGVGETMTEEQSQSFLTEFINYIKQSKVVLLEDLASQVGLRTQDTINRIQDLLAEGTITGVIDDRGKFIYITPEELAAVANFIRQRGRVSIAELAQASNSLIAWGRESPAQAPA
UniProt Q9H0S4: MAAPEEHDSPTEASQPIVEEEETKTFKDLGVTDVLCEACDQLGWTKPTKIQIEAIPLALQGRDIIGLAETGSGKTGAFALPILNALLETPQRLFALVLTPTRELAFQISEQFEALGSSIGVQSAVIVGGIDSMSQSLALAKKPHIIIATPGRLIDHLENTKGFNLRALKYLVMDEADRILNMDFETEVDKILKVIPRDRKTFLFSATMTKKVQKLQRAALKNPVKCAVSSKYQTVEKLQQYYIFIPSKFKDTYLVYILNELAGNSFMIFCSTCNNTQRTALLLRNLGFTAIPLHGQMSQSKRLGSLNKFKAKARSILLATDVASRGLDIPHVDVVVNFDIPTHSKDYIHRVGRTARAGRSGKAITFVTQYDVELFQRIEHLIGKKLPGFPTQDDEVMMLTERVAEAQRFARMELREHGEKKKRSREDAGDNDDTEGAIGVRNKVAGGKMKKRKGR
UniProt Q92466: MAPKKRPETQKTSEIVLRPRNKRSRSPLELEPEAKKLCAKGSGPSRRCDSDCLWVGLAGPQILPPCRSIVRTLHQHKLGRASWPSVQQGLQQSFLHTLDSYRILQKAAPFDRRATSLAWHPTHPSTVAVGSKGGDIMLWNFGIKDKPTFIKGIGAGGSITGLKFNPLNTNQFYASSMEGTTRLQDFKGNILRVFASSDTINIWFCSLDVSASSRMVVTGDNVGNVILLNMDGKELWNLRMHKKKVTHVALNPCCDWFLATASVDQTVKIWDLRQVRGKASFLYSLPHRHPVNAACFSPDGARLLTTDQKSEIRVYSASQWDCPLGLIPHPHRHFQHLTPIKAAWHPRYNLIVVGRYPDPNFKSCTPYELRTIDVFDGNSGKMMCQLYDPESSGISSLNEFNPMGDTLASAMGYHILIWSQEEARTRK
UniProt Q5D0E6: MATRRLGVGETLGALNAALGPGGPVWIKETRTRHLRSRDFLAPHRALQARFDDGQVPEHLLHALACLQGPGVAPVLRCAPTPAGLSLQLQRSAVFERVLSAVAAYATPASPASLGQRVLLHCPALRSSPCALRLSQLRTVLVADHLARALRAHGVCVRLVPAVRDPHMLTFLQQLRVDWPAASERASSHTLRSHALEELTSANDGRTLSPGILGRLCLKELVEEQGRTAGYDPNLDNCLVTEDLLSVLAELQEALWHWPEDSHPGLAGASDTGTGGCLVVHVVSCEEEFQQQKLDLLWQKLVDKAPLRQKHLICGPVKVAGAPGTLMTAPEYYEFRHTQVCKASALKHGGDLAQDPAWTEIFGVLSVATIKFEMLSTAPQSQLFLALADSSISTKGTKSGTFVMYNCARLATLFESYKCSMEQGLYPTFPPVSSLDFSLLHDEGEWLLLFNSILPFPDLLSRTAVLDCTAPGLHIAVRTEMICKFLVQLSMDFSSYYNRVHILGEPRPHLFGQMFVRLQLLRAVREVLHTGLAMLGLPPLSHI
UniProt Q16850: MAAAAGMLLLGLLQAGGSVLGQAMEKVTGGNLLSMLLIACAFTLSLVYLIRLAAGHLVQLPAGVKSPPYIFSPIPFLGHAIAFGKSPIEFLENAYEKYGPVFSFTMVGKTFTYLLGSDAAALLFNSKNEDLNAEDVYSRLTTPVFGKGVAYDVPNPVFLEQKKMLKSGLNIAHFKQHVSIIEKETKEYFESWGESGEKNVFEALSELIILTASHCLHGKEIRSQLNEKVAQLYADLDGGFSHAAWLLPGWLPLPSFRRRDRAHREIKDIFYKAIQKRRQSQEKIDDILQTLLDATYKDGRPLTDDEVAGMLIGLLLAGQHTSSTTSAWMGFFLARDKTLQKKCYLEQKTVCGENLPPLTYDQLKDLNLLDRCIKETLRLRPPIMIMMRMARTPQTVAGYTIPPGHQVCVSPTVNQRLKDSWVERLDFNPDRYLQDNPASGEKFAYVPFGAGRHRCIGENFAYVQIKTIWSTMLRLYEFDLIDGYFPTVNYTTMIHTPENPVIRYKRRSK
UniProt Q16531, whole entry, looked up: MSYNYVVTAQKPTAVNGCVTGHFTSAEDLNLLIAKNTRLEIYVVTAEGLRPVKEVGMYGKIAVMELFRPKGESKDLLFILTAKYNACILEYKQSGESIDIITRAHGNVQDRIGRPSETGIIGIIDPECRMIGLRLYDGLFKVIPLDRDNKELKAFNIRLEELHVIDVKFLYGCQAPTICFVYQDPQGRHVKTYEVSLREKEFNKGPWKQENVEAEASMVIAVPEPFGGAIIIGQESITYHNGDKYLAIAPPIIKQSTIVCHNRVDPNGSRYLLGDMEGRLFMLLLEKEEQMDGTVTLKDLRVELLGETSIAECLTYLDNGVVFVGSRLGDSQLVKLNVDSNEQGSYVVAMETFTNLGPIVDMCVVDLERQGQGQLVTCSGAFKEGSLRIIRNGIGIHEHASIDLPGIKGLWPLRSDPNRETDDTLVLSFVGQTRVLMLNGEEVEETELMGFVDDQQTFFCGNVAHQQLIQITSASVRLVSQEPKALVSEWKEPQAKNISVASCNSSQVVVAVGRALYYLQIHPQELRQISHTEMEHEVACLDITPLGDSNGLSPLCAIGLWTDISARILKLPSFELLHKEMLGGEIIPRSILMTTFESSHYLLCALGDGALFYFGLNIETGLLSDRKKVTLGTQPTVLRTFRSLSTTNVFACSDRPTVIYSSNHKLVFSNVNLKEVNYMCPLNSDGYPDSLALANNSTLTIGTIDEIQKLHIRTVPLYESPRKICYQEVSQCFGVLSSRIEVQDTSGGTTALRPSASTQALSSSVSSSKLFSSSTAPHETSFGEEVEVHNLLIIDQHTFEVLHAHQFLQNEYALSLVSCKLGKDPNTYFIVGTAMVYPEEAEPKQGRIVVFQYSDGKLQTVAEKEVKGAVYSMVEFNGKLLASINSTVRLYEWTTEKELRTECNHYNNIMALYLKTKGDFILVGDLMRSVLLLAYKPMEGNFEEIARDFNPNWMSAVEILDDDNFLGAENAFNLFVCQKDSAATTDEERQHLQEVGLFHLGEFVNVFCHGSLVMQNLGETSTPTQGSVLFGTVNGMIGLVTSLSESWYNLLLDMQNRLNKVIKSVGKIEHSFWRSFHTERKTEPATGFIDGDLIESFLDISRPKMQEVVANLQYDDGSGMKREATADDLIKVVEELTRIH
UniProt Q08345: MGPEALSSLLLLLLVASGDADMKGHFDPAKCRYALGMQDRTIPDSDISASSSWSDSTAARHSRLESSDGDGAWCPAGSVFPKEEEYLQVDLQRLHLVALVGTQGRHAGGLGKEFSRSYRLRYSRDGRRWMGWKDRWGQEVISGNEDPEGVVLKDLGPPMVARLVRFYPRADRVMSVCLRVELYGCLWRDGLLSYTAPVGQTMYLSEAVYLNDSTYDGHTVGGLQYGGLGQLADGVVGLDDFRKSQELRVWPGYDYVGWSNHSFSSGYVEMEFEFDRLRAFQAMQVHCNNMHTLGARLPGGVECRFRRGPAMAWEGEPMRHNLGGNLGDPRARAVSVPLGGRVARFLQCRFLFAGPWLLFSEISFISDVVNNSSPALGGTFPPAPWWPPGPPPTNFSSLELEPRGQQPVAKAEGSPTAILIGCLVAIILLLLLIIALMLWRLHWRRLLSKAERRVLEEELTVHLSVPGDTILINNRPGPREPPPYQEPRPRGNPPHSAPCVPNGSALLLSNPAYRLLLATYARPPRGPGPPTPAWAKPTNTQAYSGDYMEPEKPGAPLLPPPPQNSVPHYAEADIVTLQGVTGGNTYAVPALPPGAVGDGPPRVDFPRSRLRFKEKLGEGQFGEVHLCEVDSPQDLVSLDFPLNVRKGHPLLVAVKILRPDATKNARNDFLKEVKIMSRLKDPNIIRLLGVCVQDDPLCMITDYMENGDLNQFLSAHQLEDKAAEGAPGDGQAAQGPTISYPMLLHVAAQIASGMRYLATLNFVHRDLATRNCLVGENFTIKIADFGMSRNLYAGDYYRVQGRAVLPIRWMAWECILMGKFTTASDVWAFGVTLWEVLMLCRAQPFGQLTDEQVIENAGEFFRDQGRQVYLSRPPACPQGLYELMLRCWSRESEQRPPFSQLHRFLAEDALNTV
UniProt Q96SD1, whole entry, looked up: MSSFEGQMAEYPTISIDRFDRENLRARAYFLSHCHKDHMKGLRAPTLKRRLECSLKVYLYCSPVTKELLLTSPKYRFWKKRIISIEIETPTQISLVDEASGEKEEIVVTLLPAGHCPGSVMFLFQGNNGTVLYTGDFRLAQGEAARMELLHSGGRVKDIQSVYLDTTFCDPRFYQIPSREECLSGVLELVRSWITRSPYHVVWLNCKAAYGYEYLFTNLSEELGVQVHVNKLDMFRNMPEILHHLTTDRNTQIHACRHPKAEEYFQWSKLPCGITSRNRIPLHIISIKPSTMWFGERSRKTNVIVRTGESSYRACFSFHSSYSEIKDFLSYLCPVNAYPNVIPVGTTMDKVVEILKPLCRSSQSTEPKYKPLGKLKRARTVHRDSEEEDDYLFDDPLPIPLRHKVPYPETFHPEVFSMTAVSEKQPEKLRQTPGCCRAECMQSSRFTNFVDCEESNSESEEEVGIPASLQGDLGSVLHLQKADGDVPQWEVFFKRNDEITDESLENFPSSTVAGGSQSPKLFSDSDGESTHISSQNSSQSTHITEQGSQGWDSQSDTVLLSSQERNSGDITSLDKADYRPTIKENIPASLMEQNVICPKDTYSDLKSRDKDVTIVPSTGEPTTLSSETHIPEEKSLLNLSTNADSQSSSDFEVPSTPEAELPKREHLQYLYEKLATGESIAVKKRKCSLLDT
UniProt Q9NUL7: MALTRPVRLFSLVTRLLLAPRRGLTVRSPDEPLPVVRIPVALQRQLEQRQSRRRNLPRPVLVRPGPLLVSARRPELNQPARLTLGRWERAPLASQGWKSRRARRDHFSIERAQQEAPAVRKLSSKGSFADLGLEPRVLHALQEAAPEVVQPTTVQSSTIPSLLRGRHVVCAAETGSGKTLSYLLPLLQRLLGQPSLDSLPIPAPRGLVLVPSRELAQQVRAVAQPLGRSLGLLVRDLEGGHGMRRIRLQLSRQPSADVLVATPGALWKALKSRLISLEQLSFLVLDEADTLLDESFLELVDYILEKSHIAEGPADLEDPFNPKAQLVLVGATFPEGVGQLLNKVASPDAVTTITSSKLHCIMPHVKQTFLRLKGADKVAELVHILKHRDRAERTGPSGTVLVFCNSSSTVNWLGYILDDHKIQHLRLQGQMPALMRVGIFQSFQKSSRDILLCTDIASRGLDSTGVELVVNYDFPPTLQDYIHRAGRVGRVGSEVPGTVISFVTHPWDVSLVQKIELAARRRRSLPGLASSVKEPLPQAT
UniProt Q8IWE4: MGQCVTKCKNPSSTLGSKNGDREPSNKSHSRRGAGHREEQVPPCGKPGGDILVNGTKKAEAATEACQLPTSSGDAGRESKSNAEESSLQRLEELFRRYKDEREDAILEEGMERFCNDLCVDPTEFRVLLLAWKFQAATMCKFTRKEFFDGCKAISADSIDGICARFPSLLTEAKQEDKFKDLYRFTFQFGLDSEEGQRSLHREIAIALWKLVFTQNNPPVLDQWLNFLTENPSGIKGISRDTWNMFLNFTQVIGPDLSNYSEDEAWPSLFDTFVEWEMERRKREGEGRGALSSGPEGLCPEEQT
UniProt Q8N8Z6: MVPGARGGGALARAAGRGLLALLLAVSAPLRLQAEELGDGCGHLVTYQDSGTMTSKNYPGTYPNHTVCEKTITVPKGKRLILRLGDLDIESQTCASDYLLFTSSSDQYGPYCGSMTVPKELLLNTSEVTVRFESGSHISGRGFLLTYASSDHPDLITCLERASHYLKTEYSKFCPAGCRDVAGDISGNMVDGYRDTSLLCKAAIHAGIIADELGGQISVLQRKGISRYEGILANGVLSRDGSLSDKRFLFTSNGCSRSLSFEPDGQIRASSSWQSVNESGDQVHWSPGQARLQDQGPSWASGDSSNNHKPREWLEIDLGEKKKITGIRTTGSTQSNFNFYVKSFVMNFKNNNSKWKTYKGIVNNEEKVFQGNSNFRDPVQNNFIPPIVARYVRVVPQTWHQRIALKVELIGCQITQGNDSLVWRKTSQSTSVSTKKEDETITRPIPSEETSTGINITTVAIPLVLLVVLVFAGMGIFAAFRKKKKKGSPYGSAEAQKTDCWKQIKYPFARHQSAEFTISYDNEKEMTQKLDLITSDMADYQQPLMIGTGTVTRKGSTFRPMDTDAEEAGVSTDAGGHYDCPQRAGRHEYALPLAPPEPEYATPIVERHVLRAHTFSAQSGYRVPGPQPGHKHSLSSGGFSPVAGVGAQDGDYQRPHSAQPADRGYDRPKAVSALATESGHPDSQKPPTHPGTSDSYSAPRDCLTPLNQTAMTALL

Columns and labels:
Test in all cases: log2 fold change, soluble protein after heating vs DMSO (PISA); higher = thermal stabilisation; K562 lysate, 10 uM; active = over 0.2 and 3.5 SD of the protein, either way, in both replicates (recomputed)
vemurafenib = compound: CCCS(=O)(=O)Nc1ccc(F)c(C(=O)c2c[nH]c3ncc(-c4ccc(Cl)cc4)cc23)c1F [vemurafenib]
In short: (§1)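 To prepare the extract, K562 pellets were dounce-homogenised in PBS pH 7.4 with 1 mM MgCl2, giving crude material at 1 mg/mL protein. This was treated with 10 μM compound for 30 min, then heated in aliquots for 3 min over 48°C-58°C before pooling and addition of NP-40 to 0.5% at 4°C. Centrifugation at 21,000xg for 90 min left soluble protein in the supernatant, which TMTpro 16plex LC-MS/MS quantified with equalised channel sums. Results are log-two fold changes in thermal stability compared with solvent controls, from duplicates.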

[1] = compound: CCCS(=O)(=O)Nc1ccc(F)c(C(=O)c2c[nH]c3ncc(Cl)cc23)c1F
In short: as §1

[2] = compound: CC[C@@H]1C(=O)N(C)c2cnc(Nc3ccc(C(=O)NC4CCN(C)CC4)cc3OC)nc2N1C1CCCC1
In short: as §1

volasertib = compound: CC[C@@H]1C(=O)N(C)c2cnc(Nc3ccc(C(=O)N[C@H]4CC[C@H](N5CCN(CC6CC6)CC5)CC4)cc3OC)nc2N1C(C)C [volasertib]
In short: as §1

[3] = compound: CCn1c(C(=O)N(C2CC2)C2CC2)cc2c3c(ncn3C)c(Nc3cc(C)n(C)n3)nc21
In short: as §1

[4] = compound: CCn1cc(-c2ccnc3[nH]c(-c4cccc(CN(C)C)c4)cc23)c(-c2ccc(NC(=O)N(C)C)cc2)n1
In short: as §1

[5] = compound: CN1CCC(CNc2ccc3ncc(-c4cccc(OC(F)(F)F)c4)n3n2)CC1
In short: as §1

saracatinib = compound: CN1CCN(CCOc2cc(OC3CCOCC3)c3c(Nc4c(Cl)ccc5c4OCO5)ncnc3c2)CC1 [saracatinib]
In short: as §1

sotrastaurin = compound: CN1CCN(c2nc(C3=C(c4c[nH]c5ccccc45)C(=O)NC3=O)c3ccccc3n2)CC1 [sotrastaurin]
In short: as §1

barasertib = compound: CCN(CCCOc1ccc2c(Nc3cc(CC(=O)Nc4cccc(F)c4)[nH]n3)ncnc2c1)CCOP(=O)(O)O [barasertib]
In short: as §1

Target | log2 fold change (vemurafenib) | log2 fold change [1] | log2 fold change [2] | log2 fold change (volasertib) | log2 fold change [3] | log2 fold change [4] | log2 fold change [5] | log2 fold change (saracatinib) | log2 fold change (sotrastaurin) | log2 fold change (barasertib)
DCTN1 isoform 4 (UniProt Q14203) | inactive: 0.07 | inactive: 0.089 | inactive: 0.139 | inactive: -0.019 | inactive: -0.28 | inactive: 0.34 | inactive: 0.121 | inactive: 0.123 | inactive: -0.027 | 
DDRGK1 (UniProt Q96HY6) | inactive: 0.037 | inactive: 0.003 | inactive: 0.061 | inactive: -0.012 | inactive: 0.04 | inactive: 0.01 | inactive: 0.002 | inactive: 0.044 | inactive: 0.034 | inactive: -0.006
DDX47 (UniProt Q9H0S4) | inactive: 0.06 | inactive: 0.027 | inactive: -0.002 | inactive: 0.008 | inactive: 0.025 | inactive: -0.202 | inactive: 0.069 | inactive: 0.019 | inactive: 0.021 | inactive: 0.101
DDB2 (UniProt Q92466) | inactive: -0.073 | inactive: 0.001 | inactive: 0.015 | inactive: -0.003 | inactive: 0 | inactive: 0.006 | inactive: 0.019 | inactive: -0.022 | inactive: 0.075 | inactive: 0.025
DAXX (UniProt Q9UER7) | inactive: 0.033 | inactive: 0.024 | inactive: 0.057 | inactive: 0.046 | inactive: -0.019 | inactive: 0.012 | inactive: -0.059 | inactive: 0.013 | inactive: -0.007 | inactive: -0.017
DAAM1 (UniProt Q9Y4D1) | inactive: -0.05 | inactive: -0.278 |  | inactive: -0.433 |  | inactive: -0.054 | inactive: -0.05 | inactive: -0.11 | inactive: 0.105 | inactive: 0.066
DENND4A isoform 2 (UniProt Q7Z401) | inactive: -0.024 | inactive: 0.024 | inactive: 0.011 | inactive: -0.069 | inactive: 0.004 | inactive: -0.132 | inactive: 0.099 | inactive: 0.059 | inactive: 0.025 | inactive: 0.029
CYSTM1 (UniProt Q9H1C7) | inactive: -0.254 | inactive: -0.001 | inactive: -0.142 | inactive: -0.015 | inactive: -0.07 | inactive: -0.053 | inactive: -0.008 | inactive: -0.01 | inactive: 0.045 | inactive: -0.098
DALRD3 (UniProt Q5D0E6) | inactive: -0.033 | inactive: -0.025 | inactive: -0.095 | inactive: -0.041 |  | inactive: 0.003 | inactive: 0.144 |  |  | 
DDX52 (UniProt Q9Y2R4) | inactive: -0.024 | inactive: 0.013 | inactive: 0.124 | inactive: -0.003 | inactive: 0.013 | inactive: -0.052 | inactive: 0.019 | inactive: 0.018 | inactive: 0.035 | inactive: -0.008
DDX46, A0A0C4DG89 | inactive: 0.11 | inactive: 0.035 | inactive: 0.053 | inactive: -0.085 |  | inactive: 0.014 | inactive: 0.099 | inactive: -0.001 |  | inactive: -0.014
DCAF12 (UniProt Q5T6F0) | inactive: 0.141 |  | inactive: 0.105 |  | inactive: -0.131 |  |  | inactive: 0.009 | inactive: -0.09 | inactive: 0.003
DCP1B (UniProt Q8IZD4) | inactive: 0 |  | inactive: 0.132 |  |  | inactive: -0.062 | inactive: -0.048 | inactive: 0.202 | inactive: -0.09 | inactive: -0.078
CYP51A1 (UniProt Q16850) | inactive: -0.014 | inactive: -0.007 | inactive: 0.053 | inactive: 0.01 | inactive: -0.02 | inactive: -0.103 | inactive: -0.066 | inactive: -0.043 | inactive: 0.001 | inactive: -0.011
DCAF8 (UniProt Q5TAQ9) | inactive: -0.026 | inactive: 0.016 | inactive: 0.018 | inactive: 0.013 | inactive: 0.006 | inactive: -0.031 | inactive: 0.032 | inactive: -0.013 | inactive: 0.013 | inactive: -0.005
DDX1 (UniProt Q92499) | inactive: -0.011 | inactive: 0.019 | inactive: -0.018 | inactive: -0.042 | inactive: 0.01 | inactive: -0.048 | inactive: -0.011 | inactive: -0.01 | inactive: -0.032 | inactive: -0.015
DDX5 (UniProt P17844) | inactive: -0.017 | inactive: 0.009 | inactive: -0.029 | inactive: -0.022 | inactive: 0.031 | inactive: 0.011 | inactive: -0.072 | inactive: 0.008 | inactive: -0.006 | inactive: -0.034
DCUN1D1 (UniProt C9JVE2) |  | inactive: -0.057 | inactive: 0.297 | inactive: 0.004 | inactive: -0.405 |  |  | inactive: -0.087 | inactive: -0.006 | inactive: 0.141
CYTH2 (UniProt Q99418) |  | inactive: -0.064 | inactive: 0.028 | inactive: -0.017 | inactive: -0.074 | inactive: -0.044 | inactive: -0.051 | inactive: 0.047 |  | inactive: 0.155

Target | log2 fold change (vemurafenib) | log2 fold change [1] | log2 fold change [2] | log2 fold change (volasertib) | log2 fold change [3] | log2 fold change [4] | log2 fold change [5] | log2 fold change (saracatinib) | log2 fold change (sotrastaurin) | log2 fold change (barasertib)
DDB1 isoform 2 (UniProt Q16531) |  | inactive: -0.103 |  | inactive: 0 |  | inactive: -0.527 | inactive: 0.255 |  |  | 
DEPDC1B (UniProt Q8WUY9) | inactive: 0.104 |  | inactive: -0.306 |  | inactive: -0.109 |  |  | inactive: -0.174 |  | 
DDIT3 isoform 2 (UniProt P35638) | inactive: -0.012 |  | inactive: 0.11 |  |  |  |  |  | inactive: 0.004 | 
DDR1 isoform 5 (UniProt Q08345) |  |  | inactive: 0.064 |  | inactive: 0.013 | inactive: 0.043 | active: -0.479 | inactive: -0.142 | inactive: -0.019 | inactive: 0.169
DCLRE1C (UniProt Q96SD1) |  | inactive: -0.106 |  | inactive: -0.247 | inactive: -0.024 | inactive: -0.045 | inactive: 0.079 |  | inactive: -0.087 | 
DET1 isoform 2 (UniProt Q7L5Y6) |  | inactive: 0.003 |  | inactive: 0.118 | inactive: -0.202 |  |  |  | inactive: -0.031 | 
DCBLD2 isoform 2 (UniProt Q96PD2) |  | inactive: 0.023 |  | inactive: -0.11 | inactive: -0.076 | inactive: 0.044 | inactive: 0.019 | inactive: -0.038 |  | 
DCAF17 (UniProt Q5H9S7) |  | inactive: 0.142 |  | inactive: -0.04 |  |  |  |  |  | 
DBNDD1 isoform 3 (UniProt Q9H9R9) |  | inactive: 0.056 | inactive: -0.084 | inactive: -0.044 | inactive: 0.002 | inactive: 0.076 | inactive: 0.081 | inactive: 0.106 | inactive: -0.029 | 
DBNL (UniProt Q9UJU6) |  | inactive: 0.015 |  | inactive: -0.004 |  | inactive: 0.067 | inactive: 0.026 | inactive: 0.283 |  | inactive: 0.093
DDX28 (UniProt Q9NUL7) |  |  |  |  | inactive: 0.089 | inactive: -0.085 | inactive: -0.018 | inactive: -0.045 | inactive: 0.083 | inactive: 0.109
DCUN1D3 (UniProt Q8IWE4) |  |  | inactive: -0.14 |  |  | inactive: 0.217 | inactive: -0.156 | inactive: 0.034 |  | inactive: -0.02
DCBLD1 (UniProt Q8N8Z6) |  | inactive: 0.068 | inactive: 0.245 | inactive: 0.146 |  | inactive: -0.008 | inactive: 0.06 | inactive: 0.047 |  | 
CYP4V2 (UniProt Q6ZWL3) |  | inactive: -0.021 |  | inactive: 0.05 | inactive: -0.12 |  |  | inactive: -0.076 | inactive: -0.17 | inactive: -0.021
DDIT4 (UniProt Q9NX09) | inactive: 0.067 |  | inactive: 0.161 |  |  |  |  |  | inactive: -0.005 | 
CYP4F11 (UniProt Q9HBI6) |  |  |  |  | inactive: -0.267 | inactive: -0.018 | inactive: 0.271 | inactive: 1.07 |  | 
DCAF5 (UniProt Q96JK2) | inactive: -0.127 |  |  |  |  |  |  | inactive: -0.144 | inactive: 0.043 | 
DEPDC5 (UniProt O75140) | inactive: -0.066 |  |  |  |  | inactive: -0.095 | inactive: 0.038 |  |  | inactive: 0.016

Look-ups from above.
For log2 fold change (saracatinib), CYSTM1 (UniProt Q9H1C7) shows inactive: -0.01
For log2 fold change (barasertib), DENND4A isoform 2 (UniProt Q7Z401) shows inactive: 0.029
